The results in this text go back to PubChem BioAssay AID2685 (National Center for Advancing Translational Sciences (NCATS), 2010).

Structures are written as SMILES. Some of the results follow. Further columns of the screen follow, without active or inactive calls. Compounds called inactive in the main read-out are mostly missing here. Words in brackets tell the shape of the fitted curve; partial curves, single points and poor fits give uncertain potencies.

A short description of the assay: qHTS Assay for Lipid Storage Modulators in Drosophila S3 Cells.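 On cell number change: cells counted by Cell Tracker Red CMTPX staining in the red channel.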 The note with it: BODIPY lipid droplet fluorescence, 18-24 h; for cell number change: measured here: cell count max response, cells fed with added oleic acid. The method in brief:
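Drosophila S3 cells loaded with oleic acid (400 uM, as added) and compounds at several concentrations; lipid droplets imaged by 488-nm laser-scanning cytometry, 500–530 nm intensity and object ratio to cell channel. Percent activity normalized to 20 uM Triacsin C.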
(qHTS replaces the single test concentration by a dilution series.)

Where [1] appears, read: measured here: lipid fluorescence (Fed channel) AC50, cells fed with added oleic acid.
Setting [2] is: measured here: cell number channel AC50, cells fed with added oleic acid.

For `CCN(CC)CCNc1nc(-c2ccccc2)c2c(c1C#N)CC(C)(C)OC2`, the cell number change came out at 11.8%. Besides, the AC50 (commonly the concentration giving half of the maximal activity seen) under setting [1] is 0.00461 µM [rising, full curve, poor fit].

As to `COCCCNC(=O)c1ccc(Cn2c(=O)c3ccccc3n(CC(=O)NCc3ccco3)c2=O)cc1`, the cell number change stood at 1.17%. Further, the AC50 under setting [1] was 5.17 µM [rising, single point].

`COc1ccc(C2CC3(CC(C)(C)NC(=S)N3)Oc3cc(O)cc(C)c32)cc1OC` (stereo unspecified): the cell number change turned out to be 0.774%. Also, under setting [1], the AC50 is 6.51 µM [falling, single point].

As to `Nc1c(NCc2ccccc2F)c(=O)[nH]c(=O)n1Cc1ccccc1`, the cell number change is -10.2%. Further, the AC50 under setting [1] was 11.6 µM [rising, single point].

`Cn1c(-c2ccccc2)nc2cnccc21`: the cell number change came to 6.32%.

Regarding `COc1cc(OC)cc(C(=O)OCc2cc3ccccc3[nH]c2=O)c1`, the cell number change is -5.68%. Further, the AC50 under setting [2] was 0.291 µM [rising, partial curve, poor fit].

For `CCOC(=O)C1(Cc2ccc(Cl)cc2)CCN(C2CCC2)CC1`, the cell number change came to 14.9%. Further, the AC50 under setting [1] was 29.1 µM [rising, single point].

As to `CCC(c1nnnn1Cc1ccccc1)N1CCN(C(=O)c2ccco2)CC1` (stereo unspecified), the cell number change is -0.814%.

For `O=C(Cn1cncn1)NCCC(c1ccccc1)c1ccccc1`, the cell number change was -10.2%. In addition, under setting [1], the AC50 was 0.00461 µM [falling, full curve].

For the compound `Cn1c(SCc2ccccc2)nnc1-c1ccco1`, the cell number change is -21.4%. Besides, the concentration at half-maximal activity (AC50) under setting [2] is 0.164 µM [falling, full curve, poor fit]. Also, the AC50 under setting [1] is 0.116 µM [falling, full curve, poor fit].

On to `O=C(Cn1cc([N+](=O)[O-])ccc1=O)NCC1COc2ccccc2O1` (stereo unspecified), for which the cell number change is 12.6%. Also, under setting [1], the AC50 was 6.51 µM [falling, single point].

Regarding `O=C(c1c(F)cccc1F)N(Cc1ccccn1)C1CC1`, under setting [1], the concentration at half-maximal activity (AC50) was 29.1 µM [falling, single point].

Regarding `O=C(CSc1nc2[nH]ncc2c(=O)[nH]1)NCc1ccc(F)cc1`, the cell number change was 13.1%.

Turning to `CCOC(=O)C1CCN(Cc2ccc(O)c(OC)c2)CC1`, the cell number change was 2.41%.

As for `COc1ccc(OC)c(/C=N/N(CCC#N)C2=NS(=O)(=O)c3ccccc32)c1`, the cell number change turned out to be 19%. Moreover, under setting [1], the concentration at half-maximal activity (AC50) is 29.1 µM [rising, single point].

For the compound `N#Cc1ccc(-c2cccnc2)nc1SCc1ccc(Cl)cc1Cl`, the cell number change is -37.7%. Further, under setting [2], the AC50 was 29.1 µM [falling, single point].

In the case of `CC1=NN(C(=O)c2cc(C)nn2C)C(O)(C(F)(F)F)C1` (stereo unspecified), the cell number change was 0.804%. The AC50 under setting [1] is 6.51 µM [falling, single point].

For the compound `Cc1ccc(S(=O)(=O)N[C@@H](CC(C)C)C(=O)N2CCC(C(=O)N[C@@H](Cc3ccccc3)C(=O)O)CC2)cc1`, the cell number change was -21.7%. Moreover, under setting [1], the AC50 was 8.2 µM [falling, partial curve].

For the compound `CCCCN(C)CCNS(=O)(=O)c1ccc2c(c1)n(C)c(=O)c(=O)n2C`, the cell number change worked out at 20.5%. The AC50 under setting [1] is 0.231 µM [falling, full curve].

Turning to `COC(=O)N/N=C/c1sc(N2CCCCC2)nc1-c1cccs1`, the cell number change was -39.3%. The half-maximal activity concentration (AC50) under setting [2] was 25.9 µM [falling, single point].

Regarding `O=C(O)COc1ccc(S(=O)(=O)c2ccc(OCC(=O)O)cc2)cc1`, the cell number change is -8.71%.

For `CC(=O)c1cc(C#N)c(NCCCN(C)C)nc1C`, the cell number change was -6.67%. Besides, the concentration at half-maximal activity (AC50) under setting [1] is 0.164 µM [falling, full curve, poor fit].

On to `CC(C)(C)N=C1C([N+](=O)[O-])=CC=C2C1=NC1(CCCCC1)N2O`, for which the cell number change is -46.7%. Also, the AC50 under setting [2] was 11.6 µM [falling, partial curve]. Besides, the AC50 under setting [1] was 6.51 µM [falling, full curve].

Turning to `Cc1cccc(NC(=O)C2C3CCC4C(CCC32)C4(Cl)Cl)c1` (stereo unspecified), the cell number change amounted to 20%. Also, the half-maximal activity concentration (AC50) under setting [1] was 29.1 µM [falling, single point].

Take `O=C(CCCCCn1c(=S)[nH]c2ccc(Br)cc2c1=O)NCC1CCCO1` (stereo unspecified): the cell number change is -32.4%. For the same compound, the AC50 under setting [2] is 29.1 µM [falling, single point]. Under setting [1], the AC50 is 11.6 µM [rising, partial curve, poor fit].

Turning to `CN1CCN(C2=Cc3ccccc3Sc3cc(F)ccc32)CC1`, the cell number change is -36.1%. Under setting [2], the AC50 is 23.1 µM [falling, single point]. Under setting [1], the AC50 was 23.1 µM [falling, single point].

Regarding `O=C(Nc1ccc2nc[nH]c2c1)c1ccco1`, the cell number change was -8.28%. Besides, the concentration at half-maximal activity (AC50) under setting [1] was 14.6 µM [rising, partial curve].

With `COc1ccc(CC(NC(C)=O)C(=O)NC2CCN(C(=O)C3CCCCC3)CC2)cc1OC` (stereo unspecified), the cell number change stood at 8.97%.

Regarding `CCn1c(/C=C/c2ccc(F)cc2)nc2ccccc2c1=O`, the cell number change was 6.57%.

In the case of `O=C1c2ccncc2C(=O)N1C1CCCCC1`, the cell number change is -2.34%. The AC50 under setting [1] was 6.51 µM [falling, single point].

In the case of `Cc1ccc(CN(Cc2ccco2)C(=S)Nc2ccccc2C)cc1`, under setting [2], the concentration at half-maximal activity (AC50) is 0.082 µM [rising, full curve, poor fit].

In the case of `O=C(NC12CC3CC(CC(C3)C1)C2)c1ccc(-c2ccc(Br)cc2)o1`, the cell number change was 32.1%. Also, the AC50 under setting [2] was 29.1 µM [rising, single point].

In the case of `S=C(Nc1cccc2ccccc12)NC1CCCCC1`, the cell number change worked out at 12.6%. Further, the AC50 under setting [1] was 29.1 µM [rising, single point].

Consider `O=C(NC1CC1)c1cccc(Nc2ccc(-c3ccc4c(c3)OCCO4)nn2)c1`, for which the AC50 under setting [2] was 6.51 µM [rising, single point] and the half-maximal activity concentration (AC50) under setting [1] was 6.51 µM [rising, partial curve].

As for `O=[N+]([O-])c1cc(/C=N/NC(=S)Nc2ccccc2Cl)ccc1Cl`, the cell number change is 10.2%. In addition, the AC50 under setting [2] is 6.51 µM [rising, single point].

For `O=S(=O)(c1ccc(S(=O)(=O)N2CCN3CCCC3C2)cc1)N1CCCC1` (stereo unspecified), the cell number change was -14%. For the same compound, under setting [2], the half-maximal activity concentration (AC50) is 6.51 µM [falling, single point]. Moreover, under setting [1], the AC50 is 3.66 µM [falling, full curve].

In the case of `COc1ccc(OC)c(NS(=O)(=O)c2cc(OC)ccc2OC)c1`, the cell number change was determined as 3.2%. The AC50 under setting [1] was 0.146 µM [rising, full curve].

Take `Cn1c(=O)[nH]c(=O)c2c1nc(SCCO)n2CCCc1ccccc1`: the cell number change is -4.76%. The concentration at half-maximal activity (AC50) under setting [1] is 3.26 µM [rising, single point].

With `C=CCn1c(N)cc(=O)nc1SCC(=O)NC(C)c1ccccc1` (stereo unspecified), the cell number change was found to be 10.4%. Also, the AC50 under setting [1] was 0.13 µM [falling, full curve, poor fit].

As to `CCc1ccc(NC(=O)C(C)OC(=O)c2ccc(-n3cnnn3)cc2)cc1` (stereo unspecified), the concentration at half-maximal activity (AC50) was 0.58 µM [falling, single point] under setting [2] and 29.1 µM [falling, single point] under setting [1].
